At least one structure is not confirmed: it was looked up by name or label, or the drawing left a doubt.
Assay: Liver targeting of 2′-C-methylcytidine and its prodrugs in rats: liver NTP vs plasma nucleoside (Example K)
Assay type: in vivo
Conditions: male Sprague-Dawley rats, intraperitoneal, 5 mg/kg nucleoside equivalents; triphosphate of 2′-C-methylcytidine
Method: The liver specificity of the prodrug compounds 35.3, 35.4, and 35.5 was compared relative to the parent nucleoside, 2′-C-methylcytidine, by measuring the generation of NTP in the liver compared to nucleoside in the plasma.
Prodrug compounds 35.3, 35.4, 35.5, 38.3, 38.6, 40.1, 40.6, 40.7, 40.8, 41.2 or 2′-C-methylcytidine were administered intraperitoneally to male Sprague-Dawley rats at a dose of 5 mg/kg based on nucleoside equivalents (5 mg/kg 2′-C-methylcytidine and ˜7-10 mg/kg prodrug compounds). Plasma concentrations of 2′-C-methylcytidine and the liver concentrations of the 5′-triphosphate of 2′-C-methylcytidine were measured by LC-MS using the standard ion-pairing chromatography methods for nucleoside and triphospliate, respectively, as described in Example E. Conventional SAX HPLC-UV could not differentiate between endogenous CTP and 2′-C-methylcytidine triphosphate.

Which “Liver NTP at Cmax” value does the source give for `CC(C)[C@H](N)C(=O)O[C@@H]1[C@@H](CO[P@@]2(=O)OCC[C@@H](c3cccc(Cl)c3)O2)O[C@@H](n2ccc(N)nc2=O)[C@]1(C)O.O=C(O)C(F)(F)F` (relative stereo) [Compound 41.2, cis-5′-O-[4-(S)-(3-Chlorophenyl)-2-oxo-1,2,3-dioxaphosphorin-2-yl]-2′-C-methyl-3′-(L-valinyl)cytidine trifluoroacetic acid salt] here?
Its value is 101.47 nmol/g.

Reference: patent US20090118223A1, “Novel 2'-c-methyl and 4'c-methyl nucleoside derivatives” (priority 2005, published 2009)
